One molecule from the supplement of paper PMC8728848 can be followed below.

Some of the results follow.

Common to all, as to assay: glycan array binding signal (z-score within array); higher = stronger binding
What all share (conditions): glycan notation: IUPAC condensed, linker removed

Test [1] deals with Gal(b1-4)GlcNAc(b1-2)Man(a1-6)[GlcNAc(b1-2)Man(a1-3)]Man(b1-4)GlcNAc(b1-4)GlcNAc. A digest of the protocol: (§1)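 Glycan array binding is given as a within-array Z-score, which can be read as non-binding when negative. The arrays, 3228 of them, came from the Consortium for Functional Glycomics database and were retained only where the protein sequence was available. Z-scores were averaged across arrays of the same protein sequence at different concentrations or buffers and across linkers.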

Test [2] concerns the target Gal(b1-4)GlcNAc(b1-2)Man(a1-6)[Man(a1-3)]Man(b1-4)GlcNAc(b1-4)GlcNAc. The method in brief: as §1
The target in test [3] is Gal(b1-4)GlcNAc(b1-2)[Gal(b1-4)GlcNAc(b1-4)]Man(a1-3)[Gal(b1-4)GlcNAc(b1-2)Man(a1-6)]Man(b1-4)GlcNAc(b1-4)GlcNAc. A digest of the protocol:
as §1

Test [4] addresses Gal(b1-4)GlcNAc(b1-2)[Gal(b1-4)GlcNAc(b1-4)]Man(a1-3)[Gal(b1-4)GlcNAc(b1-2)[Gal(b1-4)GlcNAc(b1-6)]Man(a1-6)]Man(b1-4)GlcNAc(b1-4)GlcNAc. A digest of the protocol: as §1
Test [5] concerns the target Gal(b1-4)GlcNAc(b1-2)[Gal(b1-4)GlcNAc(b1-4)]Man(a1-3)[GlcNAc(b1-4)][Gal(b1-4)GlcNAc(b1-2)Man(a1-6)]Man(b1-4)GlcNAc(b1-4)GlcNAc. A digest of the protocol:
as §1

Test [6] addresses Gal(b1-4)GlcNAc(b1-2)[Gal(b1-4)GlcNAc(b1-4)]Man(a1-3)[GlcNAc(b1-4)][Gal(b1-4)GlcNAc(b1-2)[Gal(b1-4)GlcNAc(b1-6)]Man(a1-6)]Man(b1-4)GlcNAc(b1-4)GlcNAc. The method in brief: as §1
Test [7] concerns the target Gal(b1-4)GlcNAc(b1-2)[Gal(b1-4)GlcNAc(b1-6)]Man(a1-6)[Gal(b1-4)GlcNAc(b1-2)Man(a1-3)]Man(b1-4)GlcNAc(b1-4)GlcNAc. The method in brief: as §1
The target in test [8] is Gal(b1-4)GlcNAc(b1-2)[Gal(b1-4)GlcNAc(b1-6)]Man(a1-6)[Gal(b1-4)GlcNAc(b1-2)Man(a1-3)]Man(b1-4)GlcNAc(b1-4)[Fuc(a1-6)]GlcNAc. The method in brief: as §1
Test [9] has as its target Gal(b1-4)GlcNAc(b1-2)[Gal(b1-4)GlcNAc(b1-6)]Man(a1-6)[GlcNAc(b1-4)][Gal(b1-4)GlcNAc(b1-2)Man(a1-3)]Man(b1-4)GlcNAc(b1-4)GlcNAc. The method in brief: as §1
Test [10] has as its target Gal(b1-4)GlcNAc(b1-2)[Gal(b1-4)GlcNAc(b1-6)]Man(a1-6)[GlcNAc(b1-4)][Gal(b1-4)GlcNAc(b1-2)[Gal(b1-4)GlcNAc(b1-4)]Man(a1-3)]Man(b1-4)GlcNAc(b1-4)[Fuc(a1-6)]GlcNAc. A digest of the protocol: as §1
The target of test [11] is Gal(b1-4)GlcNAc(b1-3)Gal(b1-3)GalNAc. The method in brief: as §1
Test [12] concerns the target Gal(b1-4)GlcNAc(b1-3)Gal(b1-3)GlcNAc. A digest of the protocol: as §1
Test [13] deals with Gal(b1-4)GlcNAc(b1-3)Gal(b1-4)Glc. A digest of the protocol:
as §1

Test [14] addresses Gal(b1-4)GlcNAc(b1-3)Gal(b1-4)GlcNAc. A digest of the protocol:
as §1

The target in test [15] is Gal(b1-4)GlcNAc(b1-3)Gal(b1-4)GlcNAc(b1-2)Man(a1-3)[Gal(b1-4)GlcNAc(b1-3)Gal(b1-4)GlcNAc(b1-2)Man(a1-6)]Man(b1-4)GlcNAc(b1-4)GlcNAc. The method in brief:
as §1

Test [16] deals with Gal(b1-4)GlcNAc(b1-3)Gal(b1-4)GlcNAc(b1-2)Man(a1-3)[Gal(b1-4)GlcNAc(b1-3)Gal(b1-4)GlcNAc(b1-2)Man(a1-6)]Man(b1-4)GlcNAc(b1-4)[Fuc(a1-6)]GlcNAc. A digest of the protocol: as §1
Test [17] has as its target Gal(b1-4)GlcNAc(b1-3)Gal(b1-4)GlcNAc(b1-2)[Gal(b1-4)GlcNAc(b1-3)Gal(b1-4)GlcNAc(b1-6)]Man(a1-6)[Gal(b1-4)GlcNAc(b1-3)Gal(b1-4)GlcNAc(b1-2)Man(a1-3)]Man(b1-4)GlcNAc(b1-4)GlcNAc. The method in brief:
as §1

The target of test [18] is Gal(b1-4)GlcNAc(b1-3)Gal(b1-4)GlcNAc(b1-2)[Gal(b1-4)GlcNAc(b1-3)Gal(b1-4)GlcNAc(b1-6)]Man(a1-6)[Gal(b1-4)GlcNAc(b1-3)Gal(b1-4)GlcNAc(b1-2)Man(a1-3)]Man(b1-4)GlcNAc(b1-4)[Fuc(a1-6)]GlcNAc. A digest of the protocol:
as §1

Test [19] addresses Gal(b1-4)GlcNAc(b1-3)Gal(b1-4)GlcNAc(b1-3)Gal(b1-4)GlcNAc. A digest of the protocol: as §1
The target of test [20] is Gal(b1-4)GlcNAc(b1-3)Gal(b1-4)GlcNAc(b1-3)Gal(b1-4)GlcNAc(b1-2)Man(a1-3)[Gal(b1-4)GlcNAc(b1-3)Gal(b1-4)GlcNAc(b1-3)Gal(b1-4)GlcNAc(b1-2)Man(a1-6)]Man(b1-4)GlcNAc(b1-4)GlcNAc. A digest of the protocol:
as §1

Test [21] has as its target Gal(b1-4)GlcNAc(b1-3)Gal(b1-4)GlcNAc(b1-3)Gal(b1-4)GlcNAc(b1-2)Man(a1-3)[Gal(b1-4)GlcNAc(b1-3)Gal(b1-4)GlcNAc(b1-3)Gal(b1-4)GlcNAc(b1-2)Man(a1-6)]Man(b1-4)GlcNAc(b1-4)[Fuc(a1-6)]GlcNAc. The method in brief:
as §1

For test [22], the target named is Gal(b1-4)GlcNAc(b1-3)Gal(b1-4)GlcNAc(b1-3)Gal(b1-4)GlcNAc(b1-2)[Gal(b1-4)GlcNAc(b1-3)Gal(b1-4)GlcNAc(b1-3)Gal(b1-4)GlcNAc(b1-6)]Man(a1-6)[Gal(b1-4)GlcNAc(b1-3)Gal(b1-4)GlcNAc(b1-3)Gal(b1-4)GlcNAc(b1-2)Man(a1-3)]Man(b1-4)GlcNAc(b1-4)[Fuc(a1-6)]GlcNAc. A digest of the protocol: as §1

B1: Ovorubin (Pomacea canaliculata), J7I2T6 (protein)
chain: MFVATSLLLAIATLVVRASPHNYLIMDIEPPKSVSERDILNLLSPLQVKHSFRVTGSTRLLIVIRLDAQSYEKLDEITVPGKVEVIPAVNMADTMERCGVSWPRVELTDDNVTLFESESTLTDVTKEQLKAMLIGYGEHMSGLLQAHRFEYYQAAGATPHRHFVFVNSVPDEIEVFGREGVDIWGGPGEFVVKPQYVTRI
Turning to B1, the “glycan array binding signal (z-score)” value in [1] is -0.27; in test [2], -0.329; in test [3] it was -0.481; in test [4], -0.953; in test [5] it was -0.472; in [6], 1.26. The “glycan array binding signal (z-score)” value in test [7] is -0.562; in test [8], -0.347; in [9] it was -0.274; in [10] it was 0.804; in test [11], -0.999; in [12], 0.555. In addition, the “glycan array binding signal (z-score)” value in [13] was -0.794; in test [14] it was -0.609; in test [15], 0.281; in test [16] it was 1.69; in [17], 1.48; in [18], -0.253. The “glycan array binding signal (z-score)” value is -0.822 in test [19], 0.387 in test [20], 0.042 in [21] and 1.47 in test [22].
